Data from PMC12183826, “Structure-based design and evaluation of tyrosinase inhibitors targeting both human and mushroom isozymes” (RSC Medicinal Chemistry, 2025).

Test: In vitro sun protection factor by UV spectrophotometry
Assay type: physicochemical
Details: UV absorbance 290–320 nm, Mansur equation

| SMILES | SPF |
| --- | --- |
| O=C(c1ccc(=O)[nH]c1)N1CCN(c2ccc(O)cc2)CC1 [Compound 2, 5-[4-(4-hydroxyphenyl)piperazine-1-carbonyl]pyridin-2(1H)-one] | 7.36 ± 0.02^a |
| CC(=O)N1CCN(c2ccc(O)cc2)CC1 [Compound 3, 1-[4-(4-hydroxyphenyl)piperazin-1-yl]ethan-1-one] | 1.62 ± 0.10^b |

Marks after values point to notes of the source that are not given here.
